# Earlier results as cited in patent publication US20240428913A1, “[…] FOR TREATMENT RESISTANT DEPRESSION” (Compass Pathfinder Limited, priority 2022, published 2024).
# At least one structure is not confirmed: it was looked up by name or label, or the drawing left a doubt.
# Tested on: depression symptoms
# Settings: 25 mg dose; a set of participants; TRD population
smiles,measurement,value
"CN(C)CCc1c[nH]c2cccc(OP(=O)(O)O)c12 [COMP360, psilocybin]",duration of reduced depression symptoms,≤ 12 weeks
